The supplement of paper PMC2577665
± gives the standard deviation of the averaged measurements. The data scatter; read single values as rough.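 Every well combined ERalpha-negative HeLa cells, transfected ERalpha, a two-estrogen-response-element reporter, and overexpression of a single poorly characterized human cDNA. Any gene lowering the signal to at most the BRCA1 positive control level, about 0.6 of empty vector, was called a repressor hit.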

Tested on: ERE-luciferase reporter with exogenous ERalpha in HeLa cells
Assay: relative ERE luciferase activity (Firefly/Renilla) upon cDNA overexpression, relative to empty vector (fold of empty vector); higher = stronger ERalpha transactivation (less repression)
Settings: 17beta-estradiol: 10 nM; 12 h

First: MAGGYGVMGDDGSIDYTVHEAWNEATNVYLIVILVSFGLFMYAKRNKRRIMRIFSVPPTEETLSEPNFYDTISKIRLRQQLEMYSISRKYDYQQPQNQADSVQLSLE [C8orf40]
Second: MAGLKRRASQVWPEEHGEQEHGLYSLHRMFDIVGTHLTHRDVRVLSFLFVDVIDDHERGLIRNGRDFLLALERQGRCDESNFRQVLQLLRIITRHDLLPYVTLKRRRAVCPDLVDKYLEETSIRYVTPRALSDPEPRPPQPSKTVPPHYPVVCCPTSGPQMCSKRPARGRATLGSQRKRRKSVTPDPKEKQTCDIRLRVRAEYCQHETALQGNVFSNKQDPLERQFERFNQANTILKSRDLGSIICDIKFSELTYLDAFWRDYINGSLLEALKGVFITDSLKQAVGHEAIKLLVNVDEEDYELGRQKLLRNLMLQALP [DEDD]
The “relative ERE luciferase activity” value of the first is higher: 1 for the first, 0.884 for the second.

Compared with “MAGPESDAQYQFTGIKKYFNSYTLTGRMNCVLATYGSIALIVLYFKLRSKKTPAVKAT [USMG5]”, “MAGPLWRTAAFVQRHRTGLLVGSCAGLFGVPISYHLFPDPVVQWLYQYWPQGQPAPLPPQLQSLFQEVLQDIGVPSGHCYKPFTTFTFQPVSAGFPRLPAGAVVGIPASFLGDLVINTNHPVVIHGHTVDWRSPAGARLRASLTLSREAQKFALAREVVYLESSTTAVHALLAPACLAGTWALGVGAKYTLGLHAGPMNLRAAFSLVAAVAGFVAYAFSQDSLTHAVESWLDRRTASLSAAYACGGVEFYEKLLSGNLALRSLLGKDGEKLYTPSGNIVPRHLFRIKHLPYTTRRDSVLQMWRGMLNPGRS [TMEM177]” is lower in “relative ERE luciferase activity” value: 1.23 for the first, 1.04 for the second.

First: MAGPWTFTLLCGLLAATLIQATLSPTAVLILGPKVIKEKLTQELKDHNATSILQQLPLLSAMREKPAGGIPVLGSLVNTVLKHIIWLKVITANILQLQVKPSANDQELLVKIPLDMVAGFNTPLVKTIVEFHMTTEAQATIRMDTSASGPTRLVLSDCATSHGSLRIQLLHKLSFLVNALAKQVMNLLVPSLPNLVKNQLCPVIEASFNGMYADLLQLVKVPISLSIDRLEFDLLYPAIKGDTIQLYLGAKLLDSQGKVTKWFNNSAASLTMPTLDNIPFSLIVSQDVVKAAVAAVLSPEEFMVLLDSVLPESAHRLKSSIGLINEKAADKLGSTQIVKILTQDTPEFFIDQGHAKVAQLIVLEVFPSSEALRPLFTLGIEASSEAQFYTKGDQLILNLNNISSDRIQLMNSGIGWFQPDVLKNIITEIIHSILLPNQNGKLRSGVPVSLVKALGFEAAESSLTKDALVLTPASLWKPSSPVSQ [C20orf114]
Second: MAHRLQIRLLTWDVKDTLLRLRHPLGEAYATKARAHGLEVEPSALEQGFRQAYRAQSHSFPNYGLSHGLTSRQWWLDVVLQTFHLAGVQDAQAVAPIAEQLYKDFSHPCTWQVLDGAEDTLRECRTRGLRLAVISNFDRRLEGILGGLGLREHFDFVLTSEAAGWPKPDPRIFQEALRLAHMEPVVAAHVGDNYLCDYQGPRAVGMHSFLVVGPQALDPVVRDSVPKEHILPSLAHLLPALDCLEGSTPGL [HDHD3]
The “relative ERE luciferase activity” value of the first is lower: 1.03 for the first, 1.16 for the second.

“MAKSKTKHRLCSQESSVSALLASCTLSGSNSSNSDGSFHYKDKLYRSASQALQAYIDDFDLGQIYPGASTGKINIDEDFTNMSQFCNYIYKPNNAFENLDHKKHSNFISCRRHTVNDIDSMSLTTDDLLRLPADGSFSYTYVGPSHRTSKKNKKCRGRLGSLDIEKNPHFQGPYTSMGKDNFVTPVIRSNINGKQCGDKIELLILKAKRNLEQCTEELPKSMKKDDSPCSLDKLEADRSWENIPVTFKSPVPVNSDDSPQQTSRAKSAKGVLEDFLNNDNQSCTLSGGKHHGPVEALKQMLFNLQAVQERFNQNKTTDPKEEIKQVSEDDFSKLQLKESMIPITRSLQKALHHLSRLRDLVDDTNGERSPKM [C18orf54]” and “MALAARLLPQFLHSRSLPCGAVRLRTPAVAEVRLPSATLCYFCRCRLGLGAALFPRSARALAASALPAQGSRWPVLSSPGLPAAFASFPACPQRSYSTEEKPQQHQKTKMIVLGFSNPINWVRTRIKAFLIWAYFDKEFSITEFSEGAKQAFAHVSKLLSQCKFDLLEELVAKEVLHALKEKVTSLPDNHKNALAANIDEIVFTSTGDISIYYDEKGRKFVNILMCFWYLTSANIPSETLRGASVFQVKLGNQNVETKQLLSASYEFQREFTQGVKPDWTIARIEHSKLLE [C2orf47]” are within error of each other in “relative ERE luciferase activity” value: 1 ± 0.15 for the first, 1.13 for the second.

Going from “MALCEAAGCGSALLWPRLLLFGDSITQFSFQQGGWGASLADRLVRKCDVLNRGFSGYNTRWAKIILPRLIRKGNSLDIPVAVTIFFGANDSALKDENPKQHIPLEEYAANLKSMVQYLKSVDIPENRVILITPTPLCETAWEEQCIIQGCKLNRLNSVVGEYANACLQVAQDCGTDVLDLWTLMQDSQDFSSYLSDGLHLSPKGNEFLFSHLWPLIEKKVSSLPLLLPYWRDVAEAKPELSLLGDGDH [IAH1]” to “MALKVLLEQEKTFFTLLVLLGYLSCKVTCESGDCRQQEFRDRSGNCVPCNQCGPGMELSKECGFGYGEDAQCVTCRLHRFKEDWGFQKCKPCLDCAVVNRFQKANCSATSDAICGDCLPGFYRKTKLVGFQDMECVPCGDPPPPYEPHCASKVNLVKIASTASSPRDTALAAVICSALATVLLALLILCVIYCKRQFMEKKPSWSLRSQDIQYNGSELSCFDRPQLHEYAHRACCQCRRDSVQTCGPVRLLPSMCCEEACSPNPATLGCGVHSAASLQARNAGPAGEMVPTFFGSLTQSICGEFSDAWPLMQNPMGGDNISFCDSYPELTGEDIHSLNPELESSTSLDSNSSQDLVGGAVPVQSHSENFTAATDLSRYNNTLVESASTQDALTMRSQLDQESGAVIHPATQTSLQVRQRLGSL [TNFRSF19]”, the “relative ERE luciferase activity” value rises from 0.788 to 2.23.

Compared with “MALLFARSLRLCRWGAKRLGVASTEAQRGVSFKLEEKTAHSSLALFRDDTGVKYGLVGLEPTKVALNVERFREWAVVLADTAVTSGRHYWEVTVKRSQQFRIGVADVDMSRDSCIGVDDRSWVFTYAQRKWYTMLANEKAPVEGIGQPEKVGLLLEYEAQKLSLVDVSQVSVVHTLQTDFRGPVVPAFALWDGELLTHSGLEVPEGL [SPRYD4]”, “MANRTVKDAHSIHGTNPQYLVEKIIRTRIYESKYWKEECFGLTAELVVDKAMELRFVGGVYGGNIKPTPFLCLTLKMLQIQPEKDIIVEFIKNEDFKYVRMLGALYMRLTGTAIDCYKYLEPLYNDYRKIKSQNRNGEFELMHVDEFIDELLHSERVCDIILPRLQKRYVLEEAEQLEPRVSALEEDMDDVESSEEEEEEDEKLERVPSPDHRRRSYRDLDKPRRSPTLRYRRSRSRSPRRRSRSPKRRSPSPRRERHRSKSPRRHRSRSRDRRHRSRSKSPGHHRSHRHRSHSKSPERSKKSHKKSRRGNE [PRPF38A]” is higher in “relative ERE luciferase activity” value: 1.22 for the first, 1.32 for the second.

First: MANYYEVLGVQASASPEDIKKAYRKLALRWHPDKNPDNKEEAEKKFKLVSEAYEVLSDSKKRSLYDRAGCDSWRAGGGASTPYHSPFDTGYTFRNPEDIFREFFGGLDPFSFEFWDSPFNSDRGGRGHGLRGAFSAGFGEFPAFMEAFSSFNMLGCSGGSHTTFSSTSFGGSSSGSSGFKSVMSSTEMINGHKVTTKRIVENGQERVEVEEDGQLKSVTVNGKEQLKWMDSK [DNAJB8]
Second: MAPKAAKGAKPEPAPAPPPPGAKPEEDKKDGKEPSDKPQKAVQDHKEPSDKPQKAVQPKHEVGTRRGCRRYRWELKDSNKEFWLLGHAEIKIRSLGCLIAAMILLSSLTVHPILRLIITMEISFFSFFILLYSFAIHRYIPFILWPISDLFNDLIACAFLVGAVVFAVRSRRSMNLHYLLAVILIGAAGVFAFIDVCLQRNHFRGKKAKKHMLVPPPGKEKGPQQGKGPEPAKPPEPGKPPGPAKGKK [CMTM2]
The “relative ERE luciferase activity” value of the first is lower: 1.07 for the first, 2.26 ± 0.6 for the second.

“MAQAKINAKANEGRFCRSSSMADRSSRLLESLDQLELRVEALREAATAVEQEKEILLEMIHSIQNSQDMRQISDGEREELNLTANRLMGRTLTVEVSVETIRNPQQQESLKHATRIIDEVVNKFLDDLGNAKSHLMSLYSACSSEVPHGPVDQKFQSIVIGCALEDQKKIKRRLETLLRNIENSDKAIKLLEHSKGAGSKTLQQNAESRFN [BAG2]” was tested, and the “relative ERE luciferase activity” value was 1.03 ± 0.23.
